Results: publication PMC6789022
No constants are given. Whether binding was seen depends on the method and setting. Some results given as binding are weak or reduced against the parent protein; the word gives no strength. For some assays here: Sequences can lack the tags named with a protein.

Tests used:
[1] = biological target: Flag_HINT1_WT, human HINT1 stably expressed in HINT1 knockdown RBL cells (human) (UniProt P49773); assay: native gel or EMSA; HINT1 knockdown RBL cells stably expressing Flag_HINT1, IgE and antigen stimulation, lysate, SDS-PAGE without pre-heating, anti-FLAG western blot
[2] = biological target: Flag_HINT1_Y109D, human HINT1 Y109D stably expressed in HINT1 knockdown RBL cells (human) (UniProt P49773); assay: as above

“Flag_HINT1_WT, human HINT1 stably expressed in HINT1 knockdown RBL cells (from UniProt P49773 1-126)” was tested, and the binding [1] was “binds”.

B1: Flag_HINT1_Y109D, human HINT1 Y109D stably expressed in HINT1 knockdown RBL cells (protein, UniProt P49773 1-126)
chain: MADEIAKAQVARPGGDTIFGKIIRKEIPAKIIFEDDRCLAFHDISPQAPTHFLVIPKKHISQISVAEDDDESLLGHLMIVGKKCAADLGLNKGYRMVVNEGSDGGQSVDHVHLHVLGGRQMHWPPG
B1 was tested, and the binding [2] was “no binding”.
